# Data as given in patent US20250188095A1, “DISUBSTITUTED OCTAHYDROPYRROLO[3,4-c]PYRROLYL METHYL KETONE DERIVATIVE AND USE THEREOF” (JIANGSU NHWA PHARMACEUTICAL CO., LTD, priority 2022, published 2025).
# Test: Rat pharmacokinetic parameters in rat plasma
# Format: in vivo
# Conditions: male SD rats
# Method: Healthy male SD rats aged 6-9 weeks were selected and randomly divided into two groups, with 3 rats in each group. One group was given 1 mg/kg of the test compound by intravenous injection, and the other group was given 10 mg/kg of the test compound by gavage. Whole blood was collected from the animals in the intravenous group and the gavage group before administration and 0.083, 0.25, 0.5, 1.0, 2.0, 4.0, 7.0, 10.0, and 24.0 h after administration and centrifuged to obtain plasma samples.
# All biological samples were quantitatively analyzed using the LC-MS/MS method. Pharmacokinetic parameters were calculated using the non-compartmental model linear-log trapezoidal method using WinNonlinTMVersion7.0 (Pharsight, Mountain View, CA) pharmacokinetic software. AUC0-last represents the area under the plasma concentration-time curve from time point zero to the last detectable concentration time point; PO represents oral administration; iv represents intravenous, Cmax represents the peak concentration, and F % represents oral bioavailability.
structure (smiles),measurement,setting,value
"Cc1cc(C)nc(N2CC3CN(C(=O)c4c(F)cccc4-n4nccn4)CC3C2)n1 (centres unmarked) [Seltorexant, reference compound]",AUC(0-t),PO 10 mg/kg,0.701 µg·h/mL
same,Cmax,PO 10 mg/kg,0.943 µg/mL
same,bioavailability,"PO 10 mg/kg vs iv 1 mg/kg, read-out: F (%) oral bioavailability",15.9%
same,AUC(0-t),iv 1 mg/kg,0.442 µg·h/mL
same,Cmax,iv 1 mg/kg,1.1 µg/mL
